Reference: PubChem BioAssay AID342 (DTP/NCI, 2004)
The list shows only some results of the screen, not a fair sample: it is rich in T/C values a quarter to a half above the control, in often repeated tests (any T/C) and in doses without a T/C. Further doses and runs are listed elsewhere. T/C: endpoint of the treated group in % of that of the vehicle group. Schedule codes are those of the source, taken here to give the interval after Q, in days (D) or hours (H), and the number of doses after X. Some T/C values carry the count of animals alive at the toxicity check (mostly the fifth day); where none is given, no animal had died by that day. Some schedule codes hold Z or #, which are not explained here. Some entries were tested several times; the values are given in rising order. Some doses have a count of surviving animals in place of a T/C: the source holds a T/C of zero for them, seemingly a mark for toxic or unscored doses. Counts of survivors are from the toxicity check (mostly the fifth day) where no day follows; animals may have died later.

Tested on: Swiss mice, Sarcoma 180 sc, mean tumor weight T/C
Test: NCI In Vivo Anticancer Drug Screen. Data for tumor model Sarcoma 180 (subcutaneous) in Swiss mice
Conditions: T/C endpoint: mean tumor weight, higher T/C = larger tumour; for T/C: evaluated on day 8
Experimental: The antitumor activity of compounds was measured in mice bearing transplantable tumors. Survival or tumor size were measured and the results are expressed as the measurement made in the treated group (T) divided by the measurement made in the vehicle treated control group (C). The tumor model used in this assay is Sarcoma 180 (subcutaneous) in Swiss mice

[1] = dose: 500.0 mg/kg/injection, schedule: Q01DX007 (ip), vehicle: saline
[2] = dose: 30.0 mg/kg/injection, schedule: Q#A X014 (ip), vehicle: methylcellulose (MC)
[3] = dose: 200.0 mg/kg/injection, schedule: Q01DX007 (ip), vehicle: carboxymethylcellulose (CMC)
[4] = dose: 300.0 mg/kg/injection, schedule: Q01DX007 (ip), vehicle: carboxymethylcellulose (CMC)

CN(C)/N=N/c1nc[nH]c1C(N)=O
survivor count [1]: 1 of 6 | survivor count (dose: 1280.0 mg/kg/injection, schedule: Q01DX007 (ip), vehicle: carboxymethylcellulose (CMC)): 3 of 6

C[N+]1(CCC[N+]2(C)CC3C4C=CC(CC4)C3C2)CCOCC1 (stereo not given)
survivor count (dose: 125.0 mg/kg/injection, schedule: Q01DX007 (ip), vehicle: saline): 2 of 6 | survivor count (dose: 250.0 mg/kg/injection, schedule: Q01DX007 (ip), vehicle: saline): 0 of 6 | survivor count [1]: 0 of 6 | survivor count (dose: 1000.0 mg/kg/injection, schedule: Q01DX007 (ip), vehicle: saline): 0 of 6

C[C@H]1C[C@@H]2[C@H]([C@@H](O)C[C@@]3(C)[C@H]2CC[C@]3(O)C(=O)CO)[C@@]2(C)C=CC(=O)C=C12
survivor count (dose: 200.0 mg/kg/injection, schedule: Q01DX007 (sc), vehicle: water): 4 of 7

CC(=O)Nc1cc2c(cc1Br)-c1ccc(F)cc1C2
survivor count (dose: 750.0 mg/kg/injection, schedule: Q01DX007 (ip), vehicle: other): 3 of 6

C[C@@H]1C[C@@H]([C@H](O)CC2CC(=O)NC(=O)C2)C(=O)[C@@H](C)C1
survivor count (dose: 25.0 mg/kg/injection, schedule: Q#A X014 (ip), vehicle: carboxymethylcellulose (CMC)): 3 of 6

O=[n+]1c2c(n([O-])c3ccccc31)-c1cccc3cccc-2c13
survivor count (dose: 62.0 mg/kg/injection, schedule: Q01DX007 (ip), vehicle: carboxymethylcellulose (CMC)): 2 of 6 | survivor count (dose: 210.0 mg/kg/injection, schedule: Q01DX007 (ip), vehicle: carboxymethylcellulose (CMC)): 0 of 6 | survivor count (dose: 315.0 mg/kg/injection, schedule: Q01DX007 (ip), vehicle: carboxymethylcellulose (CMC)): 1 of 6

CC(=O)NNC(=O)c1ccccn1
survivor count (dose: 300.0 mg/kg/injection, schedule: Q01DX007 (ip), vehicle: water): 1 of 6

CCCCCCCCCCCCCCCCCCNC(=S)N/N=C/c1ccc(Cl)cc1Cl
T/C [2]: 45 [5 of 6 alive], 92, 100 % of control | survivor count [2]: 2 of 6 | T/C (dose: 45.0 mg/kg/injection, schedule: Q#A X014 (ip), vehicle: methylcellulose (MC)): 44 [4 of 6 alive], 45, 58 [5 of 6 alive], 80 % of control | survivor count (dose: 65.0 mg/kg/injection, schedule: Q#A X014 (ip), vehicle: methylcellulose (MC)): 2 of 6 | survivor count (dose: 97.5 mg/kg/injection, schedule: Q#A X014 (ip), vehicle: methylcellulose (MC)): 3 of 6

CCOC(=O)NP(=O)(N1CC1)N1CC1
T/C (dose: 3750.0 micrograms/kg/injection, schedule: Q01DX007 (ip), vehicle: carboxymethylcellulose (CMC)): 125 % of control

CCCCn1cnc2c(=S)nc[nH]c21
survivor count [3]: 0 of 6

CC(=O)OCC(=O)[C@@]1(O)CC[C@H]2[C@@H]3C[C@H](F)C4=CC(=O)CC[C@]4(C)[C@H]3C(=O)C[C@@]21C
survivor count (dose: 44.0 mg/kg/injection, schedule: Q01DX007 (sc), vehicle: steroid suspending solution): 3 of 6 | survivor count (dose: 66.0 mg/kg/injection, schedule: Q01DX007 (sc), vehicle: steroid suspending solution): 1 of 6

O=C1NC(=O)C2(CCCc3ccc(N(CCCl)CCCl)cc32)N1 (stereo not given)
survivor count (dose: 185.0 mg/kg/injection, schedule: Q01DX007 (ip), vehicle: saline): 4 of 7 | survivor count (dose: 188.0 mg/kg/injection, schedule: Q01DX007 (ip), vehicle: other): 3 of 6 | survivor count (dose: 280.0 mg/kg/injection, schedule: Q01DX007 (ip), vehicle: saline): 0 of 7

CCn1cnc2c(=S)nc[nH]c21
survivor count [3]: 1 of 6 | survivor count (dose: 400.0 mg/kg/injection, schedule: Q01DX007 (ip), vehicle: carboxymethylcellulose (CMC)): 0 of 6

CCOC(=O)C(N)Cc1ccc(N(CCCl)CCCl)cc1 (stereo not given)
survivor count (dose: 18.8 mg/kg/injection, schedule: Q01DX007 (ip), vehicle: saline): 2 of 6

Clc1ccc2c(c1)C(Br)c1cc(Cl)cc(Cl)c1-2 (stereo not given)
survivor count [1]: 1 of 6 | survivor count (dose: 750.0 mg/kg/injection, schedule: Q01DX007 (ip), vehicle: saline): 0 of 6

C[C@]12CCC(=O)C=C1[C@@H](F)C[C@@H]1[C@@H]2[C@@H](O)C[C@@]2(C)[C@H]1CC[C@]2(O)C(=O)CO
survivor count (dose: 282.0 mg/kg/injection, schedule: Q01DX007 (sc), vehicle: steroid suspending solution): 1 of 6

CC(=O)OC/N=[N+](/C)[O-]
survivor count (dose: 18.75 mg/kg/injection, schedule: Q01DX007 (ip), vehicle: saline): 0 of 6 | survivor count (dose: 37.5 mg/kg/injection, schedule: Q01DX007 (ip), vehicle: saline): 0 of 6

Cc1cn(C2OC(CO)C(O)C2O)c(=O)[nH]c1=O (stereo not given)
survivor count (dose: 15.0 mg/kg/injection, schedule: Q01DX007 (ip), vehicle: saline): 0 of 7

Cc1ccccn1
T/C (dose: 100.0 mg/kg/injection, schedule: Q01DX007 (ip), vehicle: saline): 129 % of control | survivor count (dose: 600.0 mg/kg/injection, schedule: Q01DX007 (ip), vehicle: saline): 3 of 6

CC(=O)[C@H]1[C@H](C)C[C@H]2[C@@H]3CCC4=CC(=O)CC[C@]4(C)[C@@]3(F)[C@@H](O)C[C@@]21C
survivor count (dose: 375.0 mg/kg/injection, schedule: Q01DX007 (sc), vehicle: steroid suspending solution): 3 of 6 | survivor count (dose: 2850.0 mg/kg/injection, schedule: Q01DX007 (sc), vehicle: steroid suspending solution): 3 of 7

S=C(N=Nc1ccccc1)NNc1ccccc1
survivor count (dose: 150.0 mg/kg/injection, schedule: Q01DX007 (ip), vehicle: carboxymethylcellulose (CMC)): 3 of 7 | survivor count [4]: 1 of 7

O=[N+]([O-])c1cccc2nsnc12
survivor count (dose: 50.0 mg/kg/injection, schedule: Q01DX007 (ip), vehicle: carboxymethylcellulose (CMC)): 2 of 6

CC(=O)Nc1ccc2c(c1)Cc1cc(NC=O)ccc1-2
survivor count (dose: 250.0 mg/kg/injection, schedule: Q01DX007 (ip), vehicle: carboxymethylcellulose (CMC)): 1 of 6 | survivor count (dose: 375.0 mg/kg/injection, schedule: Q01DX007 (ip), vehicle: carboxymethylcellulose (CMC)): 2 of 6

O=C(O)c1cc2ccccc2c(Br)c1O.OC1CCC(Br)C2CCC[N-]C12.[Cu+]
survivor count (dose: 0.5 mg/kg/injection, schedule: Q01DX007 (ip), vehicle: carboxymethylcellulose (CMC)): 3 of 6

CCCCC(=O)OCC1OC(n2cnc3c(=S)nc[nH]c32)C(OC(=O)CCCC)C1OC(=O)CCCC (stereo not given)
survivor count (dose: 175.0 mg/kg/injection, schedule: Q01DX007 (ip), vehicle: carboxymethylcellulose (CMC)): 3 of 6 | survivor count (dose: 220.0 mg/kg/injection, schedule: Q01DX007 (ip), vehicle: carboxymethylcellulose (CMC)): 3 of 6 | survivor count (dose: 335.0 mg/kg/injection, schedule: Q01DX007 (ip), vehicle: carboxymethylcellulose (CMC)): 2 of 6 | survivor count (dose: 750.0 mg/kg/injection, schedule: Q01DX007 (ip), vehicle: carboxymethylcellulose (CMC)): 0 of 6

Clc1ccc(C[P+](c2ccccc2)(c2ccccc2)c2ccccc2)cc1Cl
survivor count (dose: 8.0 mg/kg/injection, schedule: Q01DX007 (ip), vehicle: carboxymethylcellulose (CMC)): 2 of 6 | survivor count (dose: 12.0 mg/kg/injection, schedule: Q01DX007 (ip), vehicle: carboxymethylcellulose (CMC)): 1 of 6

CC(=O)OC(C)(C)/C=C/C(=O)[C@](C)(O)[C@H]1[C@H](O)C[C@@]2(C)[C@@H]3CC=C4[C@@H](C[C@H](O)C(=O)C4(C)C)[C@]3(C)C(=O)C[C@]12C
survivor count (dose: 1.6 mg/kg/injection, schedule: Q01DX007 (ip), vehicle: saline): 1 of 4 | survivor count (dose: 3.2 mg/kg/injection, schedule: Q01DX007 (ip), vehicle: saline): 0 of 4

COc1ccc(C(=O)/C(Br)=C/C(=O)O)cc1
survivor count (dose: 50.0 mg/kg/injection, schedule: Q01DX007 (ip), vehicle: water): 5 of 8

CN1Cc2c(ccc3c2OCO3)[C@@H]2[C@H](O)Cc3cc4c(cc3[C@@H]21)OCO4
survivor count [4]: 1 of 6 | survivor count (dose: 500.0 mg/kg/injection, schedule: Q01DX007 (ip), vehicle: carboxymethylcellulose (CMC)): 0 of 6
